The assay addresses T1, GST/ScAtg18 (S. cerevisiae) (UniProt P43601).
T1 sequence: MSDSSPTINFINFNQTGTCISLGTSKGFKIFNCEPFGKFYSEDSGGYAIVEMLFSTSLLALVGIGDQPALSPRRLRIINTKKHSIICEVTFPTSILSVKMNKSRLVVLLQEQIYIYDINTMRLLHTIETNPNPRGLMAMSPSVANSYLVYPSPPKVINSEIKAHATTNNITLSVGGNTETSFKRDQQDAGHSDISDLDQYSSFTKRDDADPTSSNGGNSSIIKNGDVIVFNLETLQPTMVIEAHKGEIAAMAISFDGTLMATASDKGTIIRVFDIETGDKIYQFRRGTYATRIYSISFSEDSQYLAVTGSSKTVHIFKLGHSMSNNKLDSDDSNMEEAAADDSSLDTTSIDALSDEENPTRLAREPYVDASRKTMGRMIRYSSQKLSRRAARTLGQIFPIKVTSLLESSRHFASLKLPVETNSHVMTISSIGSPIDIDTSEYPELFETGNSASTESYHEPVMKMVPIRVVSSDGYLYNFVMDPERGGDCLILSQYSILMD
Description: far-Western, overlay or dot blot.

Sequences of proteins named here, by UniProt entry; tags and fusion partners are left off. Residues count along the entry.
GST/MDRID (Q7K6A5, residues 341-788): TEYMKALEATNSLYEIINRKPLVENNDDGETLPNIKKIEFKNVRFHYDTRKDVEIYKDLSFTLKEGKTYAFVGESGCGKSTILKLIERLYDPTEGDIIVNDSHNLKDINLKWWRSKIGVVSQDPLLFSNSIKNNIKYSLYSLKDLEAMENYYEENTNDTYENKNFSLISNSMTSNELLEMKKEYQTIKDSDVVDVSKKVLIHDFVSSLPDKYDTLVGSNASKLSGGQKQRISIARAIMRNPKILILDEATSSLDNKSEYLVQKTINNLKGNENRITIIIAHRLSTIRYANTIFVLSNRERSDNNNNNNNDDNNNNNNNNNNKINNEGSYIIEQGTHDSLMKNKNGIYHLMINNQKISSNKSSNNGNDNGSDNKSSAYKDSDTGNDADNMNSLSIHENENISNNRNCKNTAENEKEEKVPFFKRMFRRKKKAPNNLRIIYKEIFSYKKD
GST/MDRCD (Q7K6A5, residues 1054-1419): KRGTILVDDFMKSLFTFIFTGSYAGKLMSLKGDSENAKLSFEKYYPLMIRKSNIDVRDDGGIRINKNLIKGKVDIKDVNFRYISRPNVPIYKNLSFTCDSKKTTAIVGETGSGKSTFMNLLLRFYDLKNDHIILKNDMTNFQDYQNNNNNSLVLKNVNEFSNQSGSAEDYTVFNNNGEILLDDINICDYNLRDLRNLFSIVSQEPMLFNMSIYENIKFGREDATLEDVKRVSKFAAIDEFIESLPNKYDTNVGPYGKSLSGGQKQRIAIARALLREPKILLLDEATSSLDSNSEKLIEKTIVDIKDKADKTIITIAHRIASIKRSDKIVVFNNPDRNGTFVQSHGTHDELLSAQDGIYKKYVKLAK

This is an account of results in doi:10.1101/2020.10.02.323600.

These are yes or no findings as the source states them, for the method shown. Sequences can lack the tags named with a protein.

With “GST/MDRID (from UniProt Q7K6A5 341-788) (domain or fragment)”, the binding entry is given as “no binding (tested: 2.5 µg/ml)”.

Regarding “GST/MDRCD (from UniProt Q7K6A5 1054-1419) (domain or fragment)”, the binding result was “no binding (tested: 2.5 µg/ml)”.
